Test results from doi:10.1101/2025.01.31.635913.
These are yes or no findings as the source states them, for the method shown. Binding seen in cells or lysates may run through a third protein. A yes stands for co-enrichment or nearness to the bait. Other partners may have been found. Tags and fused reporters may be left off the sequences shown.

The chains behind the UniProt entries cited, without tags or fusion partners.
UniProt O48538: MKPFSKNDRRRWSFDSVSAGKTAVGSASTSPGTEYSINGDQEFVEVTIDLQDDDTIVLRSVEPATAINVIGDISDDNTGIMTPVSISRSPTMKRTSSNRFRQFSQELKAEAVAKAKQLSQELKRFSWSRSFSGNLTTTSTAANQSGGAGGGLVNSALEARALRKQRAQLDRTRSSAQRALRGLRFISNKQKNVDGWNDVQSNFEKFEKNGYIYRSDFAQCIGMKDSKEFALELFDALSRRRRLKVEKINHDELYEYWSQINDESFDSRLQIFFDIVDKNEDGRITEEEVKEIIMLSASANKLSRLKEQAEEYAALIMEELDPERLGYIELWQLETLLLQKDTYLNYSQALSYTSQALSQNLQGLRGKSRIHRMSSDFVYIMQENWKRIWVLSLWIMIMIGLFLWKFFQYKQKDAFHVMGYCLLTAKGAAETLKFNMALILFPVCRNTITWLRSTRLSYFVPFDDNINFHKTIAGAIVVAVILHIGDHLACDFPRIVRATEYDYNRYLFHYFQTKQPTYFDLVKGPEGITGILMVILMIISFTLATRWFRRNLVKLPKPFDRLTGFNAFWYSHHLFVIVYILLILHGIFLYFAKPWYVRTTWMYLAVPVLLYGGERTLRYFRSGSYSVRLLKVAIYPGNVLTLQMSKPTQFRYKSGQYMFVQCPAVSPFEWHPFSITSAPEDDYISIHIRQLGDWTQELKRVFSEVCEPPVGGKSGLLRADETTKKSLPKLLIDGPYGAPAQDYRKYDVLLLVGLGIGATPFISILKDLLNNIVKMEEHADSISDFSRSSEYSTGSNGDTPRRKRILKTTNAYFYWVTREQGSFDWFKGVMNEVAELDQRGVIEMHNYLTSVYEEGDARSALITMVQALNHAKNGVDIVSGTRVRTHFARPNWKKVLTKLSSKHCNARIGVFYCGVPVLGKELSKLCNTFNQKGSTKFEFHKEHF

T1: AtMC1^C220A-GFP (catalytically inactive AtMC1 fused to C-terminal GFP), stable Arabidopsis transgenic (Arabidopsis thaliana) (UniProt Q7XJE6)
T1 sequence: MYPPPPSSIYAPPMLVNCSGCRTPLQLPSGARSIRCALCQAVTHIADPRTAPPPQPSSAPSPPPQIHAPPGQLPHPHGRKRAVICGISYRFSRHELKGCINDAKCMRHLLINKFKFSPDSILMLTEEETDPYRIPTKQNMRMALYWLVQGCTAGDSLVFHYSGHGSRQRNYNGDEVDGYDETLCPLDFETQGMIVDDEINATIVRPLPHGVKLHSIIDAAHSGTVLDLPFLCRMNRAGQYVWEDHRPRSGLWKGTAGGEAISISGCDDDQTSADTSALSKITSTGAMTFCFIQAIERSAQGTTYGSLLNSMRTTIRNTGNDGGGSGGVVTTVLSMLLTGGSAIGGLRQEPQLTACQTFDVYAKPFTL


target: T1, AtMC1^C220A-GFP (catalytically inactive AtMC1 fused to C-terminal GFP), stable Arabidopsis transgenic (Arabidopsis thaliana); assay: affinity purification with mass spectrometry

binding | Molecule
binds | SSI4 (AT5G41750), endogenous in Arabidopsis (receptor)
binds | RBOHF, endogenous in Arabidopsis (from UniProt O48538 1-944) (enzyme)
binds | RPS2, endogenous in Arabidopsis (receptor, UniProt Q42484 1-909) MDFISSLIVGCAQVLCESMNMAERRGHKTDLRQAITDLETAIGDLKAIRDDLTLRIQQDGLEGRSCSNRAREWLSAVQVTETKTALLLVRFRRREQRTRMRRRYLSCFGCADYKLCKKVSAILKSIGELRERSEAIKTDGGSIQVTCREIPIKSVVGNTTMMEQVLEFLSEEEERGIIGVYGPGGVGKTTLMQSINNELITKGHQYDVLIWVQMSREFGECTIQQAVGARLGLSWDEKETGENRALKIYRALRQKRFLLLLDDVWEEIDLEKTGVPRPDRENKCKVMFTTRSIALCNNMGAEYKLRVEFLEKKHAWELFCSKVWRKDLLESSSIRRLAEIIVSKCGGLPLALITLGGAMAHRETEEEWIHASEVLTRFPAEMKGMNYVFALLKFSYDNLESDLLRSCFLYCALFPEEHSIEIEQLVEYWVGEGFLTSSHGVNTIYKGYFLIGDLKAACLLETGDEKTQVKMHNVVRSFALWMASEQGTYKELILVEPSMGHTEAPKAENWRQALVISLLDNRIQTLPEKLICPKLTTLMLQQNSSLKKIPTGFFMHMPVLRVLDLSFTSITEIPLSIKYLVELYHLSMSGTKISVLPQELGNLRKLKHLDLQRTQFLQTIPRDAICWLSKLEVLNLYYSYAGWELQSFGEDEAEELGFADLEYLENLTTLGITVLSLETLKTLFEFGALHKHIQHLHVEECNELLYFNLPSLTNHGRNLRRLSIKSCHDLEYLVTPADFENDWLPSLEVLTLHSLHNLTRVWGNSVSQDCLRNIRCINISHCNKLKNVSWVQKLPKLEVIELFDCREIEELISEHESPSVEDPTLFPSLKTLRTRDLPELNSILPSRFSFQKVETLVITNCPRVKKLPFQERRTQMNLPTVYCEEKWWKALEKDQPNEELCYLPRFVPN
binds | RECEPTOR-LIKE PROTEIN 42 (RLP42), endogenous in Arabidopsis (receptor, UniProt Q9LJS0 22-890) SSFFTFNNPAEGPGACGPHQIQAFTQFKNEFDTRACNHSDPWNGVWCDNSTGAVTMLQLRACLSGTLKPNSSLFQFHHLRSLLLPHNNFTSSSISSKFGMLNNLEVLSLSSSGFLAQVPFSFSNLSMLSALDLSKNELTGSLSFVRNLRKLRVLDVSYNHFSGILNPNSSLFELHHLIYLNLRYNNFTSSSLPYEFGNLNKLEVLDVSSNSFFGQVPPTISNLTQLTELYLPLNDFTGSLPLVQNLTKLSILHLFGNHFSGTIPSSLFTMPFLSSIYLNKNNLSGSIEVPNSSSSSRLEHLYLGKNHLGKILEPIAKLVNLKELDLSFLNTSHPIDLSLFSSLKSLLLLDLSGDWISKASLTLDSYIPSTLEVLRLEHCDISEFPNVFKTLHNLEYIALSNNRISGKFPEWLWSLPRLSSVFITDNLLTGFEGSSEVLVNSSVQILSLDTNSLEGALPHLPLSINYFSAIDNRFGGDIPLSICNRSSLDVLDLSYNNFSGQIPPCLSNLLYLKLRKNNLEGSIPDKYYVDTPLRSFDVGYNRLTGKLPRSLINCSALQFLSVDHNGIKDTFPFYLKALPKLQVLLLSSNEFYGPLSPPNQGPLGFPELRILEIAGNKLTGSLPPDFFVNWKASSHTMNEDLGLYMVYSKVIFGNYHLTYYETIDLRYKGLSMEQENVLTSSATIDLSGNRLEGEIPESLGLLKALIALNLSNNAFTGHIPLSLANLKKIESLDLSSNQLSGTIPNGLGTLSFLAYMNVSHNQLNGEIPQGTQITGQPKSSFEGNAGLCGFPLQESCFGTNAPPAQKPKEEEEAEEDEQELNWKAVAIGYGVGVLLGLAIAQLIASYKPEWLVCLVKSRNPLRSFFGFEY
